The results in this text go back to the supplement of paper PMC8166895.

Structures are written as SMILES. Where a name gives a salt, the structure may show the parent alone. The list shows a part of the results. Most values lie at the level of the controls, where differences are scatter.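 A single-replicate pilot screen of approved drugs and clinical or known-target compounds measured melting temperature via differential scanning fluorimetry. Top stabilizing hits raised the melting point by 2 °C or more; negative shifts indicate destabilization.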 *1 amine or outer side, *2 acyl side, *3 side chain or, on linkers, in order; H or OH if unused. Where a SMILES comes first, the peptide text is derived from it. Bridges are numbered along the chain shown (N, C = ends). Roman numbers before positions name the chains, in order. [ ]: non-standard residue; d: D form. Hexamethylenediamine = C(CCCN[*:2])CCN[*:1]; Dip = N[C@H](C(=O)O)C(c1ccccc1)c1ccccc1; Chg = N[C@H](C(=O)O)C1CCCCC1; NMeA = CN[C@@H](C)C(=O)O

The subject of the experiment is SARS-CoV-2 main protease (Mpro, nsp5). Briefly: thermal shift ΔTm of Mpro relative to plate average Tm; higher = stronger thermal stabilization of Mpro (binding). As to conditions: 10 µM; protein concentration 1 µM.
`CC1CCc2cc(F)cc3c(=O)c(C(=O)O)cn1c23` (configuration not stated) [Flumequine]: the “thermal shift ΔTm of Mpro” value is -0.1 °C.
Next, `COc1cc(N2CCC(N3CCN(C)CC3)CC2)ccc1Nc1ncc(Cl)c(Nc2ccccc2S(=O)(=O)C(C)C)n1`: 0.175 °C; `CN[C@@H](C)C(=O)N[C@H](C(=O)N1CCC[C@H]1C(=O)N[C@H](C(=O)NCCCCCCNC(=O)[C@@H](NC(=O)[C@@H]1CCCN1C(=O)[C@@H](NC(=O)[C@H](C)NC)C1CCCCC1)C(c1ccccc1)c1ccccc1)C(c1ccccc1)c1ccccc1)C1CCCCC1` (I: H-[NMeA][Chg]P[Dip] / II: H-[NMeA][Chg]P[Dip]; linker I:C-II:C via Hexamethylenediamine): -0.661 °C.
Next, `C[C@@H](O)[C@H]1C(=O)N2C(C(=O)OCOC(=O)C(C)(C)C)=C(SC3CN(C4=NCCS4)C3)[C@H](C)[C@H]12` [Tebipenem Pivoxil]: -0.153 °C; `CCCCOc1ccc(OCCCN2CCOCC2)cc1` [Pramoxine HCl]: -0.125 °C.
To `CCOC(=O)C1=C(C)NC(C)=C(C(=O)OC)C1c1cccc([N+](=O)[O-])c1` (configuration not stated) [Nitrendipine] belongs -0.132 °C.
Consider `O=c1oc2ccc(O)cc2c2c1NCCC2`, for which the “thermal shift ΔTm of Mpro” value was 0.0523 °C.
For `CC(C)C[C@H](NC(=O)CNC(=O)c1cc(Cl)ccc1Cl)B1OC(=O)CC(CC(=O)O)(C(=O)O)O1` (some centres not stated), the “thermal shift ΔTm of Mpro” value came to 0.37 °C.
To `Nc1nc(NCCNc2ncc(-c3ncc[nH]3)c(-c3ccc(Cl)cc3Cl)n2)ccc1[N+](=O)[O-]` belongs 0.126 °C; to `CN(C(=O)/C=C/c1ccoc1)[C@@H]1CC[C@@]2(O)[C@H]3Cc4ccc(O)c5c4[C@@]2(CCN3CC2CC2)[C@H]1O5` [Nalfurafine hydrochloride], 0.186 °C; to `COC1(c2sc3c(N4CCOCC4)nc(-c4cnc(N)nc4)nc3c2C)COC1`, -0.0315 °C.
As to `C[C@]12CC[C@H](O)CC1=CC[C@@H]1[C@@H]2CC[C@]2(C)C(=O)CC[C@@H]12` [Dehydroepiandrosterone (DHEA)], the “thermal shift ΔTm of Mpro” value was -0.118 °C.
Consider `CCn1cc(C(=O)O)c(=O)c2cc(F)c(N3CCNCC3)cc21` [Norfloxacin], for which the “thermal shift ΔTm of Mpro” value was found to be 0.0838 °C.
In the case of `OC[C@H]1O[C@@H](O[C@H]2[C@H](O)[C@@H](O)C(O)O[C@@H]2CO)[C@H](O)[C@@H](O)[C@H]1O` (mixture of isomers) [Lactose], the “thermal shift ΔTm of Mpro” value came to 0.21 °C.
Next, `FC(F)(F)c1ccccc1-c1nc(NCc2cccs2)c2ccccc2n1`: -0.172 °C; `CCc1c(-c2ccccc2)c(-c2ccccc2)nn1-c1ccccc1-c1cccc(OCC(=O)O)c1`: -0.367 °C.
Next, `O=C(c1ccc(OCCN2CCCCC2)cc1)c1c(-c2ccc(O)cc2)sc2cc(O)ccc12` [Raloxifene HCl]: 0.00841 °C.
To `O=C1c2ccccc2-c2n[nH]c3cccc1c23` belongs 0.224 °C; to `CCOC(=O)c1c(C)[nH]c(C=C2C(=O)Nc3ccccc32)c1C` [VEGFR2 KiN/Ase Inhibitor I], -0.391 °C; to `CNC(=O)c1ccc(N2C(=S)N(c3cnc(C#N)c(C(F)(F)F)c3)C(=O)C23CCC3)cc1F`, -0.0621 °C.
For the compound `CNC(=O)c1ccccc1Sc1ccc2c(/C=C/c3ccccn3)n[nH]c2c1` [Axitinib], the “thermal shift ΔTm of Mpro” value is -0.169 °C.
In the case of `Cc1ccc(NC(=O)Nc2cc(C(F)(F)F)ccc2F)cc1Nc1ccc2c(c1)NC(=O)/C2=C\c1ccc[nH]1`, the “thermal shift ΔTm of Mpro” value was found to be 1.44 °C.
In the case of `CC(CN1c2ccccc2Sc2ccccc21)N(C)C` (configuration not stated) [Promethazine], the “thermal shift ΔTm of Mpro” value turned out to be 0.149 °C.
To `CC(CN1c2ccccc2Sc2ccccc21)N(C)C` (configuration not stated) [Promethazine HCl] belongs -0.104 °C; to `Fc1ccc2[nH]ccc2c1-c1nc(N2CCOCC2)c2sc(CN3CCN(CC4CC4)CC3)cc2n1`, -0.301 °C.
`CCOc1cc(N2CCC(O)CC2)ccc1Nc1ncc2c(n1)N(C)c1ccccc1C(=O)N2C`: the “thermal shift ΔTm of Mpro” value is -0.522 °C.
Consider `S=C=Nc1cccc(NC(=S)NCCCCNC(=S)Nc2cccc(N=C=S)c2)c1`, for which the “thermal shift ΔTm of Mpro” value was 0.985 °C.
For `c1cncc(-c2cn[nH]n2)c1`, the “thermal shift ΔTm of Mpro” value was determined as 0.000327 °C.
Turning to `CN(C)[C@@H]1CCc2[nH]c3ccc(NC(=O)c4ccc(F)cc4)cc3c2C1`, the “thermal shift ΔTm of Mpro” value amounted to 0.0103 °C.
Consider `NS(=O)(=O)c1cc2c(cc1C(F)(F)F)NC(Cc1ccccc1)NS2(=O)=O` (configuration not stated) [Bendroflumethiazide], for which the “thermal shift ΔTm of Mpro” value is -0.237 °C.
On to `Cn1ncc2c3[nH]n(-c4ccc(F)cc4)c(=O)c3c(-c3cccc(C(F)(F)F)c3)nc21` [CTLA-4 inhibitor], for which the “thermal shift ΔTm of Mpro” value was 0.151 °C.
Regarding `Cc1c(CC(=O)O)c2cccnc2n1Cc1ccc(S(C)(=O)=O)cc1C(F)(F)F` [Fevipiprant], the “thermal shift ΔTm of Mpro” value was 0.0122 °C.
Next, `O=C(NCc1ccc(Oc2ccccc2)cc1)c1nc(-c2cc(Br)c(O)c(Br)c2)no1`: 1.06 °C.
On to `CCCCCCCCCCCCCCCC[N+](C)(C)C` [Cetrimonium Bromide (CTAB)], for which the “thermal shift ΔTm of Mpro” value was -0.836 °C.
For the compound `Cc1c(Cn2c(C)nc3c(C(=O)O)cc(N4CCOCC4)cc32)cccc1C(F)(F)F`, the “thermal shift ΔTm of Mpro” value is -0.00622 °C.
Turning to `O=C(O)CCc1nc2ccccc2[nH]1` [Procodazole], the “thermal shift ΔTm of Mpro” value was 0.00827 °C.
Next, `Cn1c(SCC(=O)N2CCC[C@H]2C(=O)Nc2ccccc2-c2ccccc2)nc2ccccc21`: -0.033 °C; `CC(=C(CCO)SSCC1CCCO1)N(C=O)Cc1cnc(C)nc1N` (stereo in doubt) [Fursultiamine]: 0.246 °C.
Regarding `NCc1c[nH]c(=S)n1[C@H]1CCc2c(F)cc(F)cc2C1` [Nepicastat (SYN-117) HCl], the “thermal shift ΔTm of Mpro” value is -0.281 °C.
In the case of `Cn1c(=O)c2c(ncn2CC(O)CO)n(C)c1=O` (configuration not stated) [Dyphylline], the “thermal shift ΔTm of Mpro” value was determined as 0.648 °C.
Consider `CCCc1nc(C(C)(C)O)c(C(=O)OCc2oc(=O)oc2C)n1Cc1ccc(-c2ccccc2-c2nnn[nH]2)cc1` [Olmesartan Medoxomil], for which the “thermal shift ΔTm of Mpro” value was -0.145 °C.
Turning to `COc1cccc2c1nc1ccccc1[n+]2C` [1-Methoxy PMS], the “thermal shift ΔTm of Mpro” value was -0.294 °C.
On to `NC(=O)c1cccnc1` [Nicotinamide (Vitamin B3)], for which the “thermal shift ΔTm of Mpro” value was found to be 0.0951 °C.
Consider `OCc1ccc(-c2nn(Cc3ccccc3)c3ccccc23)o1` [Lificiguat], for which the “thermal shift ΔTm of Mpro” value is -0.0467 °C.
`Nc1nccs1` [Aminothiazole]: the “thermal shift ΔTm of Mpro” value was -0.0695 °C.
Next, `COc1ccc(Br)cc1NC(=O)Nc1cccc2c1ccn2Cc1ccnc(N)c1`: 0.0972 °C; `O=[N+]([O-])c1ncc[nH]1` [Azomycin]: -0.0527 °C; `c1ccc2c(-c3cnn4cc(-c5ccc(N6CCNCC6)cc5)cnc34)ccnc2c1`: 0.0685 °C.
To `CC(C)(Oc1ccc(C2CC2(Cl)Cl)cc1)C(=O)O` (configuration not stated) [Ciprofibrate] belongs 0.317 °C; to `Cc1[nH]c(/C=C2\C(=O)Nc3ccc(S(=O)(=O)Cc4c(Cl)cccc4Cl)cc32)c(C)c1C(=O)N1CCC[C@@H]1CN1CCCC1`, 0.12 °C; to `COc1ccc(CNCc2cccc3ccccc23)cc1`, -0.0461 °C.
Next, `NC(=O)[C@@H](CCC(F)(F)F)N(Cc1ccc(-c2ncon2)cc1F)S(=O)(=O)c1ccc(Cl)cc1`: -0.0854 °C.
In the case of `CC1=C(C(=O)O)N2C(=O)[C@@H](NC(=O)[C@H](N)c3ccc(O)cc3)[C@H]2SC1` [Cefadroxil], the “thermal shift ΔTm of Mpro” value stood at 0.011 °C.
Consider `CCCCCCCCCC(=O)O[C@H]1CC[C@H]2[C@@H]3CCC4=CC(=O)CC[C@@H]4[C@H]3CC[C@]12C` [Nandrolone decanoate], for which the “thermal shift ΔTm of Mpro” value was -0.0603 °C.
To `N#CC(=C(/N)Sc1ccccc1N)/C(C#N)=C(\N)Sc1ccccc1N` belongs 0.143 °C; to `NC(=O)CCCSc1nc(N)nc(-c2c(Cl)cc3c4c(cccc24)COC3)n1`, -0.233 °C; to `Cc1ccc(C)c(OCCn2cc(C(=O)O)c3ccccc32)c1`, 0.131 °C.
Take `CC(C)c1onc(-c2c(Cl)cccc2Cl)c1COc1ccc(/C=C/c2cccc(C(=O)O)c2)c(Cl)c1`: the “thermal shift ΔTm of Mpro” value was -0.266 °C.
To `CO[C@@H](C)Cn1c(=O)n(C)c2cnc3ccc(-c4cncc(C(C)(C)O)c4)cc3c21` belongs 0.0642 °C; to `Nc1nc(Nc2ccc(S(N)(=O)=O)cc2)nn1C(=O)c1c(F)cccc1F`, 0.145 °C.
To `CC(C)OC(=O)[C@H](C)N[P@](=O)(CO[C@H](C)Cn1cnc2c(N)ncnc21)Oc1ccccc1` [Tenofovir Alafenamide (GS-7340)] belongs -0.0575 °C; to `C=CCN1CCCC1CNC(=O)c1cc2nn[nH]c2cc1OC` (configuration not stated) [Alizapride HCl], -0.0278 °C; to `CC(=O)O[C@H]1CC[C@@]2(C)C(=CC[C@@H]3[C@@H]2CC[C@]2(C)C(=O)CC[C@@H]32)C1` [Dehydroepiandrosterone acetate], 0.0354 °C.
Next, `CC1=C(C(=O)OCCN(Cc2ccccc2)c2ccccc2)C(c2cccc([N+](=O)[O-])c2)C(P2(=O)OCC(C)(C)CO2)=C(C)N1` (configuration not stated) [Efonidipine]: -0.274 °C; `CCCNS(=O)(=O)Nc1ncnc(OCCOc2ncc(Br)cn2)c1-c1ccc(Br)cc1` [Macitentan]: -0.219 °C; `Oc1ccc(-c2cc(=S)ss2)cc1` [Desmethylanethol trithione]: 0.0489 °C.
Consider `CCCOc1ccc(CCc2nc3cc(-c4c(C)noc4C)ccc3n2CCN2CCOCC2)cc1` [PF-CBP1 hydrochloride], for which the “thermal shift ΔTm of Mpro” value was -0.0307 °C.
Next, `CCOc1nc2cccc(C(=O)OC(C)OC(=O)OC3CCCCC3)c2n1Cc1ccc(-c2ccccc2-c2nn[nH]n2)cc1` (configuration not stated) [Candesartan Cilexetil]: -0.704 °C; `O=C(O)[C@@H](S)[C@@H](S)C(=O)O` [Succimer]: 0.535 °C.
Take `CCCCNc1ncc(-c2ccc(CN3CCOCC3)cn2)c(NC2CCC(O)CC2)n1` (configuration not stated): the “thermal shift ΔTm of Mpro” value is -0.0604 °C.
Take `O=C(COCC(=O)N1CCN(C(c2ccccc2)c2ccccc2)CC1)Nc1ccc(Cl)cc1C(=O)O` [TM5275 sodium]: the “thermal shift ΔTm of Mpro” value is -0.213 °C.
Next, `Cc1ccc(NC(=S)NNc2c([N+](=O)[O-])cc(C(F)(F)F)cc2[N+](=O)[O-])cc1Cl`: 0.263 °C; `CCN1CCC[C@H]1CNC(=O)c1cc(S(N)(=O)=O)ccc1OC` [Levosulpiride]: 0.187 °C.
As to `Nc1ccc(S(N)(=O)=O)cc1` [Sulfanilamide], the “thermal shift ΔTm of Mpro” value was -0.199 °C.
To `COc1ccc(/C=C/C(=O)C2(C(=O)/C=C/c3ccc(OC)c(OC)c3)CCCCC2)cc1OC` belongs -0.246 °C; to `Cn1c(=O)c(F)c(Nc2ccc(I)cc2F)c2c(=O)n(C[C@@H](O)CO)cnc21`, -0.0113 °C; to `NCCNc1ccc(NCCN)c2c1C(=O)c1ccncc1C2=O` [Pixantrone dimaleate], 0.315 °C.
